The source of these data is patent publication US10322097B2, “Treatment of subjects with multidrug-resistant cancer” (priority 2015, dated 2019).

Where only a bound is given, the exact number is not on record here.

What all share (format): cell-based
The subject of experiment [1] is DLD-1 Bax-Bak-/- colon cancer cells. Description: MTT cytotoxicity assay, DLD-1 Bax-Bak-/-. The settings on record: Homo sapiens, DLD-1, 72 h, 3 days. Here is the method: (§1) Cell cultures and cytotoxicity assays have been used. Celastrol was dissolved in DMSO at a final concentration of 100 mmol/L and stored at −20° C. Cytotoxicity was assessed using the 3-(4,5-dimethylthiazol-2-yl)-2,5-diphenyltetrazolium bromide assay. 4000 cells from HCT116 p53^+/+ or p53^−/− colon cancer cells and DLD-1 Bax-Bak^+/+ or Bax-Bak^−/− colon cancer cells were seeded on 96-well plates per well. […] Subsequently, 10 μL of MTT reagents were added to each well and incubated at 37° C. for 4 hours followed by the addition of 100 μL solubilization buffer (10% SDS in 0.01 mol/L HCl) and overnight incubation. […] The percentage of cell viability was calculated using the following formula: Cell viability (%)=Cells number treated/Cells number DMSO control×100. Data were obtained from three independent experiments.
On the technique in general: Formazan colour is commonly taken as a measure of viable cells.

The test system of experiment [2] is DLD-1 Bax-Bak+/+ colon cancer cells. The experiment is described as follows: MTT cytotoxicity assay, DLD-1 Bax-Bak+/+. The settings on record: Homo sapiens, DLD-1, 72 h, 3 days. Here is the method:
as §1

Experiment [3] has as its system HCT116 p53+/+ colon cancer cells. Description: MTT cytotoxicity assay, HCT116 p53+/+. The settings on record: Homo sapiens, HCT-116, 72 h, 3 days. The method, then: as §1

By IC50 is commonly meant the concentration at which inhibition is half-maximal. Higher therefore signals weaker potency. `CN[C@@H]1C[C@H]2O[C@@](C)([C@@H]1OC)n1c3ccccc3c3c4c(c5c6ccccc6n2c5c31)C(=O)NC4` [Staurosporine, staurosporine]: the figures for the half-inhibitory concentration (IC50) in experiment [1], in experiment [2] and in experiment [3] were greater than 100 nM, 29.1 nM and 3.69 nM, respectively.
